Measurements from patent publication US20210246209A1 (SHANGHAI JUNSHI BIOSCIENCES, published 2021).
These are yes or no findings as the source states them, for the method shown. Some binding calls cover weakened binding; strength is not graded here.

T1: hBTLA (human BTLA protein coated on plates or coupled to a chip) (human) (UniProt Q7Z6A9)
T1 sequence (looked up): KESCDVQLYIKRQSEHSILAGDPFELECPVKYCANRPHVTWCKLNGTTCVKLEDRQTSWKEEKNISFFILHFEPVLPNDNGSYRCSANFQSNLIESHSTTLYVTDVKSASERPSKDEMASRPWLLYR

B1: humanized antibody hu17 (antibody, V domains shown)
VH: QVQLVQSGAEVKKPGASVKLSCKASGYNFKHTYAHWVRQAPGQGLEWIGRIDPANGNTKYDPKFQGRATMTADTASNTAYLELSSLRSEDTAVYYCVADHYGSSLLDYWGQGTLVTVSS
VL: DIVMTQTPLSLSVTPGQPASISCKSSQSLLDSDGKTYLNWFQQRPGQSPRRLIYLVSKLDSGVPDRFSGSGSGTDFTLKISRVEAEDVGVYYCWQGTYFPYTFGQGTKLEIK
notes: also called hull [sic]; humanized antibody 17
B2: humanized antibody hu18 (antibody, IgG4, V domains shown)
VH: QVQLVQSGAEVKKPGASVKLSCKASGYNFKHTYAHWVRQAPGQGLEWIGRIDPANGNTKYDPKFQGRATMTADTASNTAYLELSSLRSEDTAVYYCVADHYGSSLLDYWGQGTLVTVSS
VL: DVVMTQTPLSLSVTPGQPASISCKSSQSLLDSDGKTYLNWFQQRPGQSPRRLIYLVSKLDSGVPDRFSGSGSGTDFTLKISRVEAEDVGVYYCWQGTYFPYTFGQGTKLEIK
notes: also called JS004; recombinant human anti-BTLA antibody

Key:
[1] = target: cynomolgus monkey BTLA (cynomolgus monkey); test: biosensor (Fortebio / SPR as printed), cynomolgus BTLA coupled to chip, antibody 0.12 nM to 90 nM
[2] = target: cynomolgus monkey BTLA (cynomolgus monkey); test: sheet shows OD:450nm against Log:ng/mL (ELISA-type readout); the text describes a Fortebio/biosensor assay with BTLA coupled to a chip
[3] = target: T1, hBTLA (human BTLA protein coated on plates or coupled to a chip) (human); test: ELISA, hBTLA coated at 0.5 µg/mL
[4] = target: human BTLA expressed on cells (human, UniProt Q7Z6A9 31-289); test: FACS on 293F cells expressing hBTLA
Method: The humanized anti-BTLA antibodies were determined for their binding ability to hBTLA expressed on cells using cell-based flow cytometry (FACS). […] Then the cells were mixed with 50 μL of antibody diluent at different concentrations (initial concentration: 10 μg/mL, 3-fold titration), and incubated at room temperature for 30 minutes. After being washed with an FACS buffer twice, the cells were added with 100 μL of goat anti-human IgG-PE antibody, incubated for 30 minutes away from light, and assayed by FACS after two washes with an FACS buffer. The washed cells were resuspended in 4° C. buffer containing propidium iodide (PI) and 0.02% sodium azide that prevents receptor internalization and analyzed by flow cytometry. Viable cells were gated on the basis of PI positive cells being excluded from the FSC/SSC gate and their geometric mean fluorescence intensity was measured. The data were analyzed using a sigmoidal dose-response model within Prism™ software.
The humanized antibodies hu17, hu18, and hu19 can effectively bind to hBTLA on 293 cells.

Binder | binding [1] | binding [2] | binding [3] | binding [4]
B1 | binds | binds | – | –
B2 | – | – | binds | binds
